For 6 molecules, binding results are on record in article doi:10.1101/2022.09.22.509083.

Amino acid sequences for entries named in this document (tags omitted). A change or cut given only in a name is not applied to a line headed by its entry. Chains listed by the source or under a name are the forms on record and can include a tag or linker. Residues count along the entry.
UniProt P43609: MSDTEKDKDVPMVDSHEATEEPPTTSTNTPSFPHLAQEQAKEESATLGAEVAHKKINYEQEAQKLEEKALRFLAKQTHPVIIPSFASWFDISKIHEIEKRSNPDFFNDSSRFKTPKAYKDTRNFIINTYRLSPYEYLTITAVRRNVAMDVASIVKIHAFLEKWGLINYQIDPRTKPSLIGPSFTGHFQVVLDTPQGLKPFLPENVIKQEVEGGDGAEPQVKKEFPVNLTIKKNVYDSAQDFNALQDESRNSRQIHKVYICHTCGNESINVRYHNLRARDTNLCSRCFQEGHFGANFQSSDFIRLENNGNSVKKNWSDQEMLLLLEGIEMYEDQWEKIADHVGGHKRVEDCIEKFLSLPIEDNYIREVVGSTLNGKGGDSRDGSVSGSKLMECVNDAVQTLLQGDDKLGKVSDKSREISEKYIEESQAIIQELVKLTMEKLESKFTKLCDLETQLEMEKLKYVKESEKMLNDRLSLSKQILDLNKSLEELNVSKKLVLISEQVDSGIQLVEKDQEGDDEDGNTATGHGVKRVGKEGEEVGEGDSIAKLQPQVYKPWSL
UniProt P32597: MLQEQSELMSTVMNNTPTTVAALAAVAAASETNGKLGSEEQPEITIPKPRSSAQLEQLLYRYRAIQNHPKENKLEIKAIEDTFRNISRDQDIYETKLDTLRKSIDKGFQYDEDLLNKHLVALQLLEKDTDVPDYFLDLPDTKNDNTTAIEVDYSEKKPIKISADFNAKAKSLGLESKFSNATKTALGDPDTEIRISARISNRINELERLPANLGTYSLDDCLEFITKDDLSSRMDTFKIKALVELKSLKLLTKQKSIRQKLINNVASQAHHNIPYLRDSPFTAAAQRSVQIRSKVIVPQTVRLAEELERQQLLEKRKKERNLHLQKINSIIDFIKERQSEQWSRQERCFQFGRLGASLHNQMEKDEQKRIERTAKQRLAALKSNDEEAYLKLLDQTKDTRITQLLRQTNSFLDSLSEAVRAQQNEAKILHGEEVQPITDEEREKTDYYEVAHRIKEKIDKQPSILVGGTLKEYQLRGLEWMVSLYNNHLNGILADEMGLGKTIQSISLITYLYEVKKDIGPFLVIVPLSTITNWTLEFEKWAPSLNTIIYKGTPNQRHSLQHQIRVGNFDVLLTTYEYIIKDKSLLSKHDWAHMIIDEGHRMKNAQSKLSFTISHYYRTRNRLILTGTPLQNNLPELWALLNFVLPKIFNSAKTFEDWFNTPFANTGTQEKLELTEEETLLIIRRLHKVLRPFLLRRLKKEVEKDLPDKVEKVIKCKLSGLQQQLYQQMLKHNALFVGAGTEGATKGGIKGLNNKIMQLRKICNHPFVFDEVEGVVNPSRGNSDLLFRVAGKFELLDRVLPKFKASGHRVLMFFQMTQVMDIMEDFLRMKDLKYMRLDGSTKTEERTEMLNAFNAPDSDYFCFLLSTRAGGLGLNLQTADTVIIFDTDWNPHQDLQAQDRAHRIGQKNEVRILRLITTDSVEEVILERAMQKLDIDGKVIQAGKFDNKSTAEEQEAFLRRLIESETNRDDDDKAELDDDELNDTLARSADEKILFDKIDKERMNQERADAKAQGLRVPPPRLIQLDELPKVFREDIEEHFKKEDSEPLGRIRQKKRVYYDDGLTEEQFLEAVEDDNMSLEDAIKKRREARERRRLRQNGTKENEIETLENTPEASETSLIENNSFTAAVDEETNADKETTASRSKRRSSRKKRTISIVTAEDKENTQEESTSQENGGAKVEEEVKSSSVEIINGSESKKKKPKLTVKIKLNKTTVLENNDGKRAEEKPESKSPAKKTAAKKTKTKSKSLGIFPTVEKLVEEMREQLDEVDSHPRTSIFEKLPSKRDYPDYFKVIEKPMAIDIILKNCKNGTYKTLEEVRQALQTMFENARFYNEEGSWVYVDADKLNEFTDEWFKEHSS
UniProt P47822: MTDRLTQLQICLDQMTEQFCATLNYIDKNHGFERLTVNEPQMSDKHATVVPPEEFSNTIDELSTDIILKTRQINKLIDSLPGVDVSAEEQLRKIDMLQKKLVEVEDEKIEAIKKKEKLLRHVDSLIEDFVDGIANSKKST
UniProt P32569: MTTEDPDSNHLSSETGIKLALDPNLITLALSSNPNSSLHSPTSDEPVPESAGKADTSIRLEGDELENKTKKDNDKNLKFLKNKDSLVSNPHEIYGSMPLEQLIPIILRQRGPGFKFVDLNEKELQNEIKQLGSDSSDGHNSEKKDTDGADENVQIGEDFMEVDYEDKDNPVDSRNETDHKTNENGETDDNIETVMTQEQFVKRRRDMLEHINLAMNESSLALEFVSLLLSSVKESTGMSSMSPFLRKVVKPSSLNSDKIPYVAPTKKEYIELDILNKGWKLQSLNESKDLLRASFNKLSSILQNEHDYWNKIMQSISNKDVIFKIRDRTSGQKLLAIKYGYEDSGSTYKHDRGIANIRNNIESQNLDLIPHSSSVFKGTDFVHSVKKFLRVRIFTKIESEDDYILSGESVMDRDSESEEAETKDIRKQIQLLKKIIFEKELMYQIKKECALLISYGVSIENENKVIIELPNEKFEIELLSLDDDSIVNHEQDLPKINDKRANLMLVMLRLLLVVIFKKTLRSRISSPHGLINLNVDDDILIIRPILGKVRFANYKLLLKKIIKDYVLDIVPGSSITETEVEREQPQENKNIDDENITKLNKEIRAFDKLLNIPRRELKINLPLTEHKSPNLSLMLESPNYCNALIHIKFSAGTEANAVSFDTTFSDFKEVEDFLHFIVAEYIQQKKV
Med17 domain (amino acids 346-687) fused to the Gal4 DNA binding domain (GBD): residues 346-687 of P32569
UniProt P19263: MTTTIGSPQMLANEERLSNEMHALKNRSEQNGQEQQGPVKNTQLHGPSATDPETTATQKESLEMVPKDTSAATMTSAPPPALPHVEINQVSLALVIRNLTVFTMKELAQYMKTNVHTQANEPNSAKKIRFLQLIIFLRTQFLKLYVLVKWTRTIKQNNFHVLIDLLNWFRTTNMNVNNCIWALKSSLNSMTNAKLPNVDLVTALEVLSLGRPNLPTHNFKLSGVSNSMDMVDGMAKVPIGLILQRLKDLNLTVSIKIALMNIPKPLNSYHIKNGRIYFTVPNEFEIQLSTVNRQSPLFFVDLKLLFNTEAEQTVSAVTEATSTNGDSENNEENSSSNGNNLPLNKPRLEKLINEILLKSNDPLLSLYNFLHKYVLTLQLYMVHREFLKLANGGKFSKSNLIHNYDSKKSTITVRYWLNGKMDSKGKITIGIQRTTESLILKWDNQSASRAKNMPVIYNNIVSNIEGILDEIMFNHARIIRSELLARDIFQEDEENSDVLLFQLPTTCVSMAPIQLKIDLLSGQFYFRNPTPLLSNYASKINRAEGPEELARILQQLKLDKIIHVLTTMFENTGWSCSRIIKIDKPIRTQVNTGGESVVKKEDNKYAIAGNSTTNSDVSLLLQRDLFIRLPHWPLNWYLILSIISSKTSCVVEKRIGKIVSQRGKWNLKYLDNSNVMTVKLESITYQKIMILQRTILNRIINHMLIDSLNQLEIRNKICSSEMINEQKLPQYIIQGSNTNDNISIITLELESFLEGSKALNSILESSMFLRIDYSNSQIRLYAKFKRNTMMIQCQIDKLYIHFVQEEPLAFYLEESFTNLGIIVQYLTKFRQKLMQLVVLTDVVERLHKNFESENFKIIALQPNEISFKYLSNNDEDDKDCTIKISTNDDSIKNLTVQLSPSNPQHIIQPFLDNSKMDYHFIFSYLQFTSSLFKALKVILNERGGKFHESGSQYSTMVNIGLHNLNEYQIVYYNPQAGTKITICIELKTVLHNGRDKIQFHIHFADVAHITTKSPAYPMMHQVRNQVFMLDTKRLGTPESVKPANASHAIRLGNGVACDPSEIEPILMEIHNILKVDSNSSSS
UniProt Q06639, residues 588-695: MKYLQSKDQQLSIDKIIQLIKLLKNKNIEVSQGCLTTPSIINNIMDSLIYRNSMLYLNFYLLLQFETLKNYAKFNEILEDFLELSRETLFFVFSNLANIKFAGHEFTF
UniProt P38781, residues 644-883: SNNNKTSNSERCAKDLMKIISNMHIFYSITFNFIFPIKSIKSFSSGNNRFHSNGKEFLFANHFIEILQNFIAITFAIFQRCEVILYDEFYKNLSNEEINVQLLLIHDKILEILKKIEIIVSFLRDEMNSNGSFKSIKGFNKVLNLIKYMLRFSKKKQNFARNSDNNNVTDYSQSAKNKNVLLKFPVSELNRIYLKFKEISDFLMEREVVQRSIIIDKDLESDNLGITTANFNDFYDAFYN

Assay [1] concerns the target Rsc8-Myc (S. cerevisiae) (UniProt P43609). Nature of the assay: co-IP.
Assay [2] addresses Sth1-Myc (S. cerevisiae) (UniProt P32597). Nature of the assay: co-IP.
In assay [3] the target is Rsc8 fused to the Gal4 DNA binding domain (GBD) (S. cerevisiae) (UniProt P43609). In words: two-hybrid.
Assay [4] deals with Med21 Mediator subunit fused to the GBD (S. cerevisiae) (UniProt P47822). In words: two-hybrid.
Assay [5] has as its target Med17 Mediator head module subunit fused to the Gal4 DNA binding domain (GBD) (S. cerevisiae) (UniProt P32569). In words: two-hybrid.
Assay [6] has as its target Med17 domain (amino acids 346-687) fused to the Gal4 DNA binding domain (GBD) (S. cerevisiae) (UniProt P32569). In words: two-hybrid.
In assay [7] the target is Med17 Mediator head module subunit fused to the Gal4 DNA binding domain (GBD) (S. cerevisiae) (UniProt P32569). In words: two-hybrid. This is another data set of the same source.

Like-named read-outs stand apart in the source and are kept apart here. No constants are given. Whether binding was seen depends on the method and setting. For some assays here: In cells and extracts the contact can be indirect. Some binding calls cover weakened binding; strength is not graded here. For some assays here: Tags and fused reporters may be left off the sequences shown.

Consider “Med14 subunit of Mediator (from UniProt P19263 1-1082)”, for which the binding entry in assay [1] and in assay [2] was “binds” each time.

“Med17 fused to the Gal4 activation domain (GAD) (from UniProt P32569 1-687)”: the binding result in assay [3] is reported as “binds”.

For “Rsc3 fragment (amino acids 588-695) (from UniProt Q06639 588-695) (domain or fragment)”, in assay [4], the binding entry is “binds”.

On to “Rsc30 fragment (amino acids 644-883) (from UniProt P38781 644-883) (domain or fragment)”, for which, in assay [4], the binding result was “binds weakly”.

As to “full-length Rsc8 fused to the Gal4 activation domain (GAD) (from UniProt P43609 1-557)”, the binding result in assay [5] and in assay [6] was “binds” each time.

B1: Med22 fused to the Gal4 activation domain (GAD) (protein, UniProt P32570 1-121)
chain: MSNQALYEKLEQTRTILSVKLAELINMTTIADRNDDDEGSFAQENSELAVATTSVMMVNNQTMQLIKNVQDLLILTRSIKEKWLLNQIPVTEHSKVTRFDEKQIEELLDNCIETFVAEKTT
As to B1, in assay [7], the binding result was “binds”.
